This is a selection; strong and weak results do not stand in their true shares. The calls were merged from several studies; some rest on single wells. Some of the results follow.
How the values were obtained:
Details in all cases: stereoisomer not certain
[1] = test system: T1, O52R1
T1 sequence (whole entry): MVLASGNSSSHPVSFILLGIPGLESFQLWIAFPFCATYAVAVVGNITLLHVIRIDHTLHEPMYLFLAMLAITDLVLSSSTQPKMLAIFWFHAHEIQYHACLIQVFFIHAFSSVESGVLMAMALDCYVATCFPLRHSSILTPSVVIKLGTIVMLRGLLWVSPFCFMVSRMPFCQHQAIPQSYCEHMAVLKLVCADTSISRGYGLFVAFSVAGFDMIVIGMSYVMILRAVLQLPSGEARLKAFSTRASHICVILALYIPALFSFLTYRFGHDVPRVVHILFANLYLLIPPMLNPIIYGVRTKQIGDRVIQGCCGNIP
Procedure, shortened: (§1)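 Values were gathered from published papers (main text and supplementary material), with extra details requested from the original authors when needed, and checked for typos and inconsistencies. Each receptor–molecule pair is called responsive (active) if the original authors judged the measured signal statistically different from baseline, and non-responsive (inactive) otherwise. Assay methods varied by source, often transient mammalian cell-line luciferase assays. Recorded details include cell line, G-protein, co-transfected protein and tags.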

[2] = test system: T2, O52W1
T2 sequence (whole entry): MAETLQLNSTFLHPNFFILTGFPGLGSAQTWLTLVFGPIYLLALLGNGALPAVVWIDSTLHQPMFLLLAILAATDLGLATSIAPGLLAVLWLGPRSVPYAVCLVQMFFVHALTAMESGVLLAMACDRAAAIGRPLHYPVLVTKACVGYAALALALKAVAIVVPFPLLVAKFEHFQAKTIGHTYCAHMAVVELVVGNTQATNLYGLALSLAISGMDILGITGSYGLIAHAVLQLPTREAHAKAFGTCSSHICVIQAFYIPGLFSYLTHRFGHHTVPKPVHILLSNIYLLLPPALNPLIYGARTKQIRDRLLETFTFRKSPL
Procedure, shortened: as §1

[3] = test system: T3, O56A3
T3 sequence (whole entry): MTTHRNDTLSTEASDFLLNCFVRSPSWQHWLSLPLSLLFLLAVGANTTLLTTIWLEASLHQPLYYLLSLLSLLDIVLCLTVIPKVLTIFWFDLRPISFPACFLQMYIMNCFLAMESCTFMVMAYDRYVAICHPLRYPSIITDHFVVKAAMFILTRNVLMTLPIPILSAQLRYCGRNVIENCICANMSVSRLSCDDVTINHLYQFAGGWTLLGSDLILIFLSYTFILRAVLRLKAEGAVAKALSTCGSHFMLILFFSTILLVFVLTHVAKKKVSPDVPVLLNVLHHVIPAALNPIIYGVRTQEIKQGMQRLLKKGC
Procedure, shortened: as §1

[4] = test system: T4, O56B1
T4 sequence (whole entry): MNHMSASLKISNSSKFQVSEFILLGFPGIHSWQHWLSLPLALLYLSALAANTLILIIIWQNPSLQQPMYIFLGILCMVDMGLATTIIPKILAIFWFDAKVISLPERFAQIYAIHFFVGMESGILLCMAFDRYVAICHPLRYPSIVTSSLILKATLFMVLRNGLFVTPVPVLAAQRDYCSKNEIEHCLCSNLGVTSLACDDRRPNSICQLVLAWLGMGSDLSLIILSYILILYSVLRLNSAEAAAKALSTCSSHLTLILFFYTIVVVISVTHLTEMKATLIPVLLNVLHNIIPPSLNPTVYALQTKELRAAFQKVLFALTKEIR
Procedure, shortened: as §1

[5] = test system: T5, O56B4
T5 sequence (whole entry): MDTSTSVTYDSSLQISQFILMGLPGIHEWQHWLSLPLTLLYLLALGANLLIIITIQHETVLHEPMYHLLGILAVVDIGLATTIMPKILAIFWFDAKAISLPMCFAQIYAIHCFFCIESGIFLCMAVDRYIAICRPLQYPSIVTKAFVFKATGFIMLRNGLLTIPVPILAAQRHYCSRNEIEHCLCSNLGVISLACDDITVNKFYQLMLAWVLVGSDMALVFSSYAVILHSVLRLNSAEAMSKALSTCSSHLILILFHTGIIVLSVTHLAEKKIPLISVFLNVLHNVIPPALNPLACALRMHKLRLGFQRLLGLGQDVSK
Procedure, shortened: as §1

[6] = test system: T6, O5AC2
T6 sequence (whole entry): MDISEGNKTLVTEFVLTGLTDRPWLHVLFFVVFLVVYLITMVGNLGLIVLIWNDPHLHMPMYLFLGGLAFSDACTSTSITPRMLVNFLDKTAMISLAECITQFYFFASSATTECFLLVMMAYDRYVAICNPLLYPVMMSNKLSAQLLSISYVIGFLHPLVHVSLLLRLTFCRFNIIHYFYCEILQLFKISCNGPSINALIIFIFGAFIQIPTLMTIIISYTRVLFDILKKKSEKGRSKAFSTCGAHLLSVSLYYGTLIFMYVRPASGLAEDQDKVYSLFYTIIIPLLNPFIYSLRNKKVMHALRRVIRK
Procedure, shortened: as §1

[7] = test system: T7, O5AK2
T7 sequence (whole entry): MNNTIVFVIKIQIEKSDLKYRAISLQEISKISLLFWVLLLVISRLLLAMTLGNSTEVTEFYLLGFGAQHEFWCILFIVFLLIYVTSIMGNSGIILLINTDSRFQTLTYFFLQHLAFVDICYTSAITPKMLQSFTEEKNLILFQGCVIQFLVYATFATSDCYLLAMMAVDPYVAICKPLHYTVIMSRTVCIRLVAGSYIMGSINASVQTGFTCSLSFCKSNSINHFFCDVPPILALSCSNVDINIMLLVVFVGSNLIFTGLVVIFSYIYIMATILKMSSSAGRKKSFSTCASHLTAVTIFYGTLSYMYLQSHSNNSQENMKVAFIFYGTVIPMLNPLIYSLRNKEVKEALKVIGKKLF
Procedure, shortened: as §1

[8] = test system: T8, O5AK3
T8 sequence (whole entry): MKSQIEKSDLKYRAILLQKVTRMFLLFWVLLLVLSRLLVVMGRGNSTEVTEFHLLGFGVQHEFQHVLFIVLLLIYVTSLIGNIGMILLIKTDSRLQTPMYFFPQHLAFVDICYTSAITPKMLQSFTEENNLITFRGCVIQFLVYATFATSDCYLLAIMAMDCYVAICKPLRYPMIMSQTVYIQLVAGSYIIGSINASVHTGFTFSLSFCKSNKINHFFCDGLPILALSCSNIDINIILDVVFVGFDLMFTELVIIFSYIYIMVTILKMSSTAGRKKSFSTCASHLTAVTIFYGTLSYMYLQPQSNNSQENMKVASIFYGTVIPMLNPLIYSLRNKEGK
Procedure, shortened: as §1

[9] = test system: T9, O5AL1
T9 sequence (whole entry): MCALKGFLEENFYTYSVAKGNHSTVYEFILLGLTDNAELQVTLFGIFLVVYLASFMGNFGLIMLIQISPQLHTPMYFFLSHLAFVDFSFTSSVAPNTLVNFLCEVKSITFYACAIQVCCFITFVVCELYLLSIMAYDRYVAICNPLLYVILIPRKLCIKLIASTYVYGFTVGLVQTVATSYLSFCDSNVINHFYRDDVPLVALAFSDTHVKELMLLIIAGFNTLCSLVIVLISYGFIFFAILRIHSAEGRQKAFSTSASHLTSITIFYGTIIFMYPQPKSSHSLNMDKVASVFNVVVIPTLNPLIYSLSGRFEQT
Procedure, shortened: as §1

[10] = test system: T10, O5AP2
T10 sequence (whole entry): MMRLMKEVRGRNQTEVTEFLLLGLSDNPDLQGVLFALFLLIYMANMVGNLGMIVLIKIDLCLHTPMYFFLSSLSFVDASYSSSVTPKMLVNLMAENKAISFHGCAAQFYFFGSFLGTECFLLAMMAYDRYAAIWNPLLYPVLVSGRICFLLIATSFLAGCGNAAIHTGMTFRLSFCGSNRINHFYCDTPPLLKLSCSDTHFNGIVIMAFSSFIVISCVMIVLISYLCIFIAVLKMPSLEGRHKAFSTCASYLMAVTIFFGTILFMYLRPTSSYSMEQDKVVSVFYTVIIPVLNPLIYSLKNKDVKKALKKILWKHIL
Procedure, shortened: as §1

[11] = test system: T11, O5AU1
T11 sequence (whole entry): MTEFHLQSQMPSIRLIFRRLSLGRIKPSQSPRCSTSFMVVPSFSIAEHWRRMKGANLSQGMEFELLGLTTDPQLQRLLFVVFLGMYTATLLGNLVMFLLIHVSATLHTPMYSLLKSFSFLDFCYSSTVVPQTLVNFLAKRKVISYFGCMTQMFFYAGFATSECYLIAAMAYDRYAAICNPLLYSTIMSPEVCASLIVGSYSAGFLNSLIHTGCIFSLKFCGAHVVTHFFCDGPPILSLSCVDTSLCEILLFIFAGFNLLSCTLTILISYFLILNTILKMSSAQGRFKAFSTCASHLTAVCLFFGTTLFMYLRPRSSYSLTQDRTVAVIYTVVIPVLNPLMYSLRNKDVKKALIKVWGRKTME
Procedure, shortened: as §1

[12] = test system: T12, O5H14
T12 sequence (whole entry): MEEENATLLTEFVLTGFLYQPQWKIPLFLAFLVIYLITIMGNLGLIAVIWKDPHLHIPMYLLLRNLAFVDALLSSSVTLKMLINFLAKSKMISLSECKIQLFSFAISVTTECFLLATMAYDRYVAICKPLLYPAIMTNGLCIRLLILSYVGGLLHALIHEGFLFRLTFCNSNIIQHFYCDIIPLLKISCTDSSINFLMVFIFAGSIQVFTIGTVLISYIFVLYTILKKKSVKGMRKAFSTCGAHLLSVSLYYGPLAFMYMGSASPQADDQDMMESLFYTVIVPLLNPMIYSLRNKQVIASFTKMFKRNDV
Procedure, shortened: as §1

[13] = test system: T13, O6C68
T13 sequence (whole entry): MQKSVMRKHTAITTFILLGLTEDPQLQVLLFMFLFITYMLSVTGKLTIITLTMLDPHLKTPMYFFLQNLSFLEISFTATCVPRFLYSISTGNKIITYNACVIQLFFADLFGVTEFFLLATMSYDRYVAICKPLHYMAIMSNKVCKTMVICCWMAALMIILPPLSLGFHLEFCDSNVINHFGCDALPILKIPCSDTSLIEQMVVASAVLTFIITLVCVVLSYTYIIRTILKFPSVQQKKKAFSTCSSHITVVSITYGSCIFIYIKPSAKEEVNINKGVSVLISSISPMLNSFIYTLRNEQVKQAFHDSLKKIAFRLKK
Procedure, shortened: as §1

[14] = test system: T14, O6C70
T14 sequence (whole entry): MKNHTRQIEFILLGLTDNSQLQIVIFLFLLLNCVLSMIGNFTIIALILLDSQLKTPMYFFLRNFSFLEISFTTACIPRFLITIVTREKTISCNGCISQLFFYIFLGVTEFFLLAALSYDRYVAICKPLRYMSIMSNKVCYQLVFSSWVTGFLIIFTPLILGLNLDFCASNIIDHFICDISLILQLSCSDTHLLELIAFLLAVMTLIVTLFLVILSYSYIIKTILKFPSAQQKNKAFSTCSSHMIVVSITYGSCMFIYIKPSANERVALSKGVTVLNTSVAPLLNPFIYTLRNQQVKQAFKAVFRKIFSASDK
Procedure, shortened: as §1

[15] = test system: T15, O7E24
T15 sequence (whole entry): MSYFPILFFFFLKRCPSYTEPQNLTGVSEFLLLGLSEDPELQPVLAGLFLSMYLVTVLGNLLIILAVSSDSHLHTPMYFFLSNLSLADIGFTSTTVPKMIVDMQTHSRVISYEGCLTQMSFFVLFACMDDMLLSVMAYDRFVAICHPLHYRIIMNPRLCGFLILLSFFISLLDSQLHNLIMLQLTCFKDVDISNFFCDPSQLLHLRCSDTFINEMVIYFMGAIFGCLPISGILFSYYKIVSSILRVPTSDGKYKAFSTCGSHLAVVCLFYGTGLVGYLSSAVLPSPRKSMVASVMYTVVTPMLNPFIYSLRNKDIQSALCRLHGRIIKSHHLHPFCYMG
Procedure, shortened: as §1

[16] = target: T16, OR10A3 (Homo sapiens) (UniProt P58181)
T16 sequence (whole entry): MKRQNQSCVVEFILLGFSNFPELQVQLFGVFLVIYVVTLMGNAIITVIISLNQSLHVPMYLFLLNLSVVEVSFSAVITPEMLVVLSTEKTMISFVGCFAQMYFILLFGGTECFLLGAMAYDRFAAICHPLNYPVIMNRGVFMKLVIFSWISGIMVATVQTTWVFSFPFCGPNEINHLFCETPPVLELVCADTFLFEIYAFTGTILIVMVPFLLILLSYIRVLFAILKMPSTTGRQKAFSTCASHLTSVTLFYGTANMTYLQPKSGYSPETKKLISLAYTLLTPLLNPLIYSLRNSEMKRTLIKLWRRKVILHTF
Procedure, shortened: as §1

Measured: odorant receptor agonist call

CCCCCCCCCC=O
inactive: all assays above

CC(C)C(=O)O
inactive: all assays above

CC1=NC(C)SC1C (configuration not stated)
not listed: [1] | [2] | [13]
inactive: all other assays above

COc1cc(C)ccc1O
inactive: all assays above

CCC1(O)C2(C)CCC(C2)C1(C)C (configuration not stated)
inactive: all assays above

CC(C)(O)CCCC1=CCC(C=O)CC1 (configuration not stated)
inactive: [1] | [2] | [13]

CCCCCOC(C)=O
inactive: all assays above

CC(C)C=O
active: [3]
inactive: all other assays above

CCCCO
inactive: all assays above

CCCCCCCCCCC=O
active: [2]
inactive: all other assays above

c1ccc(Oc2ccccc2)cc1
inactive: all assays above

CC1=CCC(C(C)(C)O)CC1 (configuration not stated)
inactive: all assays above

COc1ccccc1O
inactive: all assays above

From the M2OR odorant receptor database
